Among all 53,000 sequences or so, about 3,700 (7%) were called active.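 How the source made its calls: active means gene knockdowns whose robust z-score for IL-1 alpha signal is at least 2 or at most -2, so actives lie on both sides; inactive means the rest.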 The list shows a part of the results.
Test: Components of the Cytosolic LPS Sensing Pathway: Gene Identification via Genome-wide siRNA Screen
Conditions: RAW264.7 macrophages, IL-1a HTRF, actives lie on both sides, screened at 100 nM (by protocol), cells primed 5 h with Pam3CSK4 first
Text: Non-canonical inflammasome activation by cytosolic LPS is a critical component of the host response to Gram-negative bacterial infection, however we lack a comprehensive understanding of the cellular processes that control this pathway. Here we describe a genome-wide siRNA screen to identify genes regulating the mouse macrophage IL-1 alpha response to cytosolic LPS.
RAW264.7 cells were maintained in complete DMEM media, comprising DMEM with 4.5 g/L glucose, 10% FBS (Gemini Bio-Products, West Sacramento, CA), 2 mM Glutamine (Lonza) and 20 mM HEPES (Lonza), hereafter complete DMEM.
The RNAi screen was conducted in 384-well format using the Ambion Silencer Mouse Genome siRNA Library (#4391425), which consists of three unique, nonoverlapping, nonpooled siRNAs for each of 17,000 gene targets. siRNA reagents ([…]) were stamped into 384-well white flat-bottom microplates (Corning, 3570) using a Velocity11 VPrep liquid handling system (Agilent) integrated into a BioCel robotic platform (Agilent) in columns 1-22, leaving columns 23-24 empty for negative (Ambion, Negative control #1) and positive (mouse Casp4) controls, respectively. The median value of each plate's negative control column was used to normalize sample wells, and the positive control was used to assess transfection efficiency and assay performance.
Lipofectamine RNAiMAX Transfection Reagent ([…]; Invitrogen) was added in […] serum-free, antibiotic-free media to plate wells using a Thermo Scientific Matrix WellMate and Microplate Stacker. Plates were incubated for 45 min at room temperature to allow for the sufficient formation of siRNA-lipid complexes. Cells were seeded at a density of 1x10^4 cells per well in 20 microL media containing 20% (vol/vol) FBS without antibiotics. The final concentration of siRNA in each well was 100 nM. Cells were cultured for 48h at 37 degrees C in 5% CO2 before addition of […] of TLR ligand Pam3CSK4 for 5 hours. The medium was then removed, replaced with […] growth media and cell were transfected with […] of LipidA and TransIT-TKO (Mirus) for 24 hour. At the end of the LipidA treatment, […] of supernatant was transferred to a 384 Greiner Bio-one non-binding low volume plate and […] of IL-1a HTRF reagent (Cisbio, 62MIL1APEH) was added and incubated at room temperature overnight. The plates were read on an EnVision plate reader (PerkinElmer). Cell viability was measured by adding 20ul Cell Titer Glo to the original plate and running a luminescence read on the EnVision. The quantified IL-1a signal for each siRNA gene-targeted well was divided by the median of the negative control wells and multiplied by 100 to achieve a negative control normalized value for each well/siRNA. This normalized value was then used to generate a robust z-score by first taking the log of each value and then by subtracting the median and dividing by the […].
For GGGAUUUCGAGAGACUAGCTT against Dock9, the z-score was inactive: -0.487. For GGAACAAAGUGUUUAAAACTT against Ptprj, the z-score was inactive: 0.717. With GGAUGUCCUGGAAUAUGUGTT against Mrpl45 the z-score was inactive: 0.0662. In the case of CCACAUUUCUAGUUGUUUATT against Olfr1151, the z-score is reported as inactive: -1.77. In the case of GGGCAGAGUGAUGUUGUCATT against Gsdmd, the z-score is reported as active: -3.34. In the case of GGAAAAAAUCAGGAGAUCUTT against Fbxo34, the z-score is reported as inactive: -0.124. With AUUUCUGUAAGGCAAAUGUTT against Olfr970 the z-score was inactive: -0.454. With GGACAUGGUUUAGGUUAGATT against Zxda the z-score was inactive: 1.08. In the case of GCUCUUAGAAUCAUCGUCCTT against Ctbp1, the z-score is reported as inactive: 0.528. For CCUAGCAAUGUAGUAUCUATT against Snap23, the z-score was inactive: -0.406. For GGUAUUAGAAAUCCUGAUCTT against Pias2, the z-score was inactive: -0.716. In the case of GGAUGGACCAAAGAGAUAUTT against Ldb1, the z-score is reported as inactive: -0.34. For GGUCAAGAGUGCAUUCAAATT against Olfr1445, the z-score was inactive: 0.266. In the case of GGUGUGUGGCCAGAAAGUUTT against Sfi1, the z-score is reported as active: -2.83. In the case of GGGAACCUGUUUUCUUUCUTT against Nudt3, the z-score is reported as inactive: 1.21. With GGAAAGUCACAACACUUCCTT against Lamp5 the z-score was inactive: -0.923. For GCUAGCUCGUGUGAUGUUUTT against Twnk, the z-score was inactive: -0.933. In the case of GCAGCAGUUGGCUAAAACATT against Bbof1, the z-score is reported as inactive: -1.14. With GCAUGCUUGGAACAUUCCGTT against Ctnna3 the z-score was inactive: 0.518. For GGGACUUGGGACUUGUGGATT against Saa4, the z-score was inactive: 0.328. In the case of GCAAUGUAACCCUGAAAAUTT against Cd48, the z-score is reported as inactive: -1.03. With GAGAGAGACAAUCCUGAAGTT against Klra22 the z-score was inactive: -0.0539. In the case of ACUGUUUAAUCACUGUGGUTT against Olfr891, the z-score is reported as inactive: -0.994. In the case of CGUAAAGGAACACUCUCGGTT against Eif3i, the z-score is reported as inactive: -0.218. In the case of GGAGCAAUGUUGUCACAACTT against Fbln1, the z-score is reported as inactive: 0.483. In the case of GGUCGUAUAUAAUUUGAUGTT against Nnt, the z-score is reported as inactive: 0.208. In the case of GGAAAGGUGCUUUUCAAAATT against Nedd9, the z-score is reported as inactive: 0.625. For GCUCGUCAUUGAAAUAGUGTT against Igtp, the z-score was inactive: 0.274. For GGAAGAAUCCUCCAUGGAGTT against Mrpl24, the z-score was inactive: 1.35. In the case of GGGAUUGAACAGUUAUGUATT against Sub1, the z-score is reported as inactive: -0.662. For GGAUUCUUCUUCCACUUUGTT against Fbxo46, the z-score was inactive: -0.0241. With GGAAAGAAGAAGAGUCUAATT against Nucb2 the z-score was inactive: 0.994. In the case of GCACUUUGUGCUAGAUGAATT against Ddx39a, the z-score is reported as inactive: -0.688. For GCACACCUCUAGUGGACUUTT against Taf10, the z-score was inactive: -1.13. For GGGAAGUGGGAUUCCUAAGTT against Fam220a, the z-score was inactive: 0.218. With GGAAGUGUUAAAUCCUGCUTT against Rnaseh1 the z-score was inactive: -0.459. With CCUUGUAUGGAAUUUAAAGTT against Rbm6 the z-score was inactive: 0.65. With GGGUGUCACAAAAUAAAAUTT against Sigirr the z-score was inactive: -0.245. In the case of GGAAGUUGAGAGCUUAAAGTT against Pank3, the z-score is reported as inactive: -0.177. With GAGCACAGUGCACGACCAATT against Mcfd2 the z-score was inactive: -0.532. For GGUGAAAUUUUAUGAAGAGTT against Grk3, the z-score was inactive: -0.342. In the case of AGCCACUUAUGUUAAUAAATT against Pcbd2, the z-score is reported as inactive: -0.115. With CGAGGCACUUCUCACUCAUTT against Cyp2c54 the z-score was inactive: 1.43. For GGUUCAGAACAAAAUCUACTT against Cd209d, the z-score was inactive: 0.264. With GGCUAAUGUGCUUUCCCAUTT against Olfr643 the z-score was inactive: -0.0609. For GGAAACAUAACCUUCAAUGTT against Wdr3, the z-score was inactive: 1.13. With GGCCACUCGUUUUCUAAUUTT against Ccdc71l the z-score was inactive: 0.407. In the case of GGAAAUCUACAUCAUGGCUTT against Ift140, the z-score is reported as active: -2. In the case of AGACCACAGUUAGCAGUGGTT against Pdcd2l, the z-score is reported as inactive: -1.58. In the case of GGAGAUUGUUGACCUGGUCTT against Tuba3b, the z-score is reported as active: 2.03. For UUUUUUUACUCAGUCCUCATT against Olfr538, the z-score was inactive: -0.728. In the case of GGGACUUUCGUAAUAAACCTT against Lman1, the z-score is reported as inactive: -1.26. In the case of GGAGAUCAAAAACAGCUUUTT against Tob1, the z-score is reported as inactive: -0.596. In the case of GCAAAUGAGAGGUCUGUUGTT against Olfr1024, the z-score is reported as active: -2.52. For GGGUGACAUCAUGACAGUGTT against Bcar1, the z-score was inactive: 0.763. For “GACUUAUAUUCCUCCAUCUTT against E330013P04Rik”, the z-score was inactive: 0.829. In the case of GGUCAAGCCUUCCUUUUCUTT against Cldn23, the z-score is reported as inactive: -0.908. In the case of GUGUAGUGAUCAAUAGAUCTT against LOC432823, the z-score is reported as inactive: 0.821. With CGACUGUGGAAGGUUUGGUTT against Rubcn the z-score was inactive: -0.297. In the case of CCAGAAUUGUUGUUUAUUCTT against Rbbp4, the z-score is reported as inactive: -0.93. For GCCCUUUUGCCUCUGAACUTT against Capg, the z-score was inactive: -0.407. For GAGACAAUGCAGCAAAAUCTT against Gm839, the z-score was inactive: -1.13. In the case of CGAACCUACAGAGCUCAUGTT against Rpl17, the z-score is reported as inactive: 0.948. For CGGUCUGUGAAAGAUGCAGTT against Chmp3, the z-score was inactive: -0.033. In the case of GGAACUAACGGAAUUACUGTT against Arl3, the z-score is reported as inactive: 0.951. For GGAUGAAGGUGCUUUUAAATT against Gnrhr, the z-score was inactive: -0.917. For GGUACAACUGCUCAUUUUUTT against Rhbdd1, the z-score was inactive: -0.0082. With GGCAAUCAGAUCAUUUACATT against Olfml1 the z-score was inactive: -0.0595. With CGGGCAUAUUGAUGUUAAATT against Fech the z-score was inactive: 1.09. For GCACAACGACCUUUCCAGGTT against Chst12, the z-score was inactive: -0.561. In the case of GCAGUCAUGCCCGAUCUUGTT against Sowaha, the z-score is reported as inactive: -0.838. For CCCUCAAGUACGAAAUCAATT against Jagn1, the z-score was inactive: 0.611. In the case of GCACUAUGGGUGUCAUGGUTT against Mon1a, the z-score is reported as active: -3.1. In the case of CGCUGUGCUGAGCUUACUUTT against D17H6S53E, the z-score is reported as active: -2.36. For GGAGUUUAAGAAGACGCACTT against Slc26a3, the z-score was inactive: 1.62. With “GGAUCGAACUGCCAUUGCUTT against A930104D05Rik” the z-score was inactive: -0.201. For “GGAGAGUGACUUGCAUUAUTT against 2310030G06Rik”, the z-score was inactive: -0.415. For GGGUUCCAGUUUGUUUCCUTT against Cnbp, the z-score was inactive: -0.901. For GGCAUCGUCACCAAACUGUTT against Fgf11, the z-score was active: -2.51. In the case of GGACCUCUUCAAAACCACCTT against Ammecr1l, the z-score is reported as inactive: -1.35. With CCCAGUUGAACAGAUUCCUTT against Olfr357 the z-score was inactive: -1.05. With AAUCCUGAUGCUACGCAUGTT against Phkg2 the z-score was inactive: -0.461. For GGGCCUUCUGAUUUAAAAGTT against Slc43a3, the z-score was inactive: -1.01. With GGAGCUAAUCGCACUUAAATT against Tnnt3 the z-score was inactive: 0.135. In the case of GGAAUCCAGCUUCGAUGUCTT against Ciapin1, the z-score is reported as inactive: -0.15. In the case of GGACAGCAUUAACAUUGUATT against Fbxo22, the z-score is reported as inactive: -0.708. In the case of AAGGGAGUCCAGCAUUUCATT against Pitpnm3, the z-score is reported as inactive: 0.0635. In the case of CCCAUCACUUGAUUGCUUUTT against Kbtbd3, the z-score is reported as inactive: 1.28. For GGGCAAUGUGCUACACCAUTT against Olfr640, the z-score was inactive: -0.428. For CCCAAGCCUACCUUACGAGTT against Hipk2, the z-score was inactive: -1.67. With “GCCCAACUUUAAUCUUAUATT against D630039A03Rik” the z-score was inactive: 1.81. For GGAAGCCACUUCAGAAGCUTT against Olfr412, the z-score was inactive: -0.216. For CCUGACCAAGGGACUCUCUTT against Plk5, the z-score was inactive: 0.195. In the case of GCUCAGCUUAGCUGCUUUUTT against Olfr493, the z-score is reported as inactive: 0.552. For GGUGGCUUUGCUGAAGUACTT against Acad12, the z-score was inactive: 0.285. In the case of GGUGGAUGAGUUGUUCCUUTT against Adck5, the z-score is reported as inactive: 0.637. In the case of GGAUGGAACAUAUGAUUAGTT against Vmn1r234, the z-score is reported as inactive: 0.653. In the case of GGAUUUAUCCUGGUGACUUTT against Cox20, the z-score is reported as active: 2.49. With “GGUUACAGAGCUACAUCGATT against A930017M01Rik” the z-score was inactive: -1.17. With GGACUGUGUCCUUCUAUGATT against Oas1f the z-score was inactive: 0.103. With GCCAUAUGUCAAGCCUGACTT against Scrn3 the z-score was inactive: -1.6. With GGCAGUUUUAUGAACUAUUTT against Zfp3 the z-score was inactive: 1.69. In the case of GGACUCAAUAAGAACCUCGTT against Papss1, the z-score is reported as inactive: -1.25. In the case of CCUUGUGAUGUUUAAAGACTT against Abcg1, the z-score is reported as inactive: 0.293. In the case of GGUUUGGAGUGACUUAAUATT against Scrn2, the z-score is reported as inactive: 0.349. For GCACUGCCAGAGGUUCUGUTT against U90926, the z-score was inactive: -0.107.

Reference: PubChem BioAssay AID1508600 (Functional Genomics Laboratory (NCATS/FGL), 2020)
